Measured values as given in the supplement of paper PMC12067093, “Discovery and optimisation of a covalent ligand for TRIM25 and its application to targeted protein ubiquitination” (Chemical Science, 2025).
The list shows a part of the results.

Amino acid sequences for entries named in this document (tags omitted). A change or cut given only in a name is not applied to a line headed by its entry.
UniProt Q8WYA0: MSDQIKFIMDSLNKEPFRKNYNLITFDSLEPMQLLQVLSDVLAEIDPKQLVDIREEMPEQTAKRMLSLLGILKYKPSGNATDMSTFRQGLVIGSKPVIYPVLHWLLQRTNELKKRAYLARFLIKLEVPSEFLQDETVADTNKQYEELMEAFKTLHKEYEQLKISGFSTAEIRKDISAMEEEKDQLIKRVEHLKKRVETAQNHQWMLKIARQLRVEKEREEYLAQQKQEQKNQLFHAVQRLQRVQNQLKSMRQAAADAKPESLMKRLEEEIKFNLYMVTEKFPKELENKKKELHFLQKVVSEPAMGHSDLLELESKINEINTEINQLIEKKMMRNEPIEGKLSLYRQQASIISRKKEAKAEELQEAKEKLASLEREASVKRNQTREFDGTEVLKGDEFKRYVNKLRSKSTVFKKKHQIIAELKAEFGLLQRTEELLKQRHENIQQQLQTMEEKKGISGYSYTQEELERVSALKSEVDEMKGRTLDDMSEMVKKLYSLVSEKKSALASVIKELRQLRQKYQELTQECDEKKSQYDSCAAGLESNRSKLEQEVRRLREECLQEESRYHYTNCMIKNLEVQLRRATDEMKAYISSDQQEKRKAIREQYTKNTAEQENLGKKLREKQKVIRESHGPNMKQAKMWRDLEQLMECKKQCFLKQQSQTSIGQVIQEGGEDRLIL
UniProt P42858, whole entry, looked up: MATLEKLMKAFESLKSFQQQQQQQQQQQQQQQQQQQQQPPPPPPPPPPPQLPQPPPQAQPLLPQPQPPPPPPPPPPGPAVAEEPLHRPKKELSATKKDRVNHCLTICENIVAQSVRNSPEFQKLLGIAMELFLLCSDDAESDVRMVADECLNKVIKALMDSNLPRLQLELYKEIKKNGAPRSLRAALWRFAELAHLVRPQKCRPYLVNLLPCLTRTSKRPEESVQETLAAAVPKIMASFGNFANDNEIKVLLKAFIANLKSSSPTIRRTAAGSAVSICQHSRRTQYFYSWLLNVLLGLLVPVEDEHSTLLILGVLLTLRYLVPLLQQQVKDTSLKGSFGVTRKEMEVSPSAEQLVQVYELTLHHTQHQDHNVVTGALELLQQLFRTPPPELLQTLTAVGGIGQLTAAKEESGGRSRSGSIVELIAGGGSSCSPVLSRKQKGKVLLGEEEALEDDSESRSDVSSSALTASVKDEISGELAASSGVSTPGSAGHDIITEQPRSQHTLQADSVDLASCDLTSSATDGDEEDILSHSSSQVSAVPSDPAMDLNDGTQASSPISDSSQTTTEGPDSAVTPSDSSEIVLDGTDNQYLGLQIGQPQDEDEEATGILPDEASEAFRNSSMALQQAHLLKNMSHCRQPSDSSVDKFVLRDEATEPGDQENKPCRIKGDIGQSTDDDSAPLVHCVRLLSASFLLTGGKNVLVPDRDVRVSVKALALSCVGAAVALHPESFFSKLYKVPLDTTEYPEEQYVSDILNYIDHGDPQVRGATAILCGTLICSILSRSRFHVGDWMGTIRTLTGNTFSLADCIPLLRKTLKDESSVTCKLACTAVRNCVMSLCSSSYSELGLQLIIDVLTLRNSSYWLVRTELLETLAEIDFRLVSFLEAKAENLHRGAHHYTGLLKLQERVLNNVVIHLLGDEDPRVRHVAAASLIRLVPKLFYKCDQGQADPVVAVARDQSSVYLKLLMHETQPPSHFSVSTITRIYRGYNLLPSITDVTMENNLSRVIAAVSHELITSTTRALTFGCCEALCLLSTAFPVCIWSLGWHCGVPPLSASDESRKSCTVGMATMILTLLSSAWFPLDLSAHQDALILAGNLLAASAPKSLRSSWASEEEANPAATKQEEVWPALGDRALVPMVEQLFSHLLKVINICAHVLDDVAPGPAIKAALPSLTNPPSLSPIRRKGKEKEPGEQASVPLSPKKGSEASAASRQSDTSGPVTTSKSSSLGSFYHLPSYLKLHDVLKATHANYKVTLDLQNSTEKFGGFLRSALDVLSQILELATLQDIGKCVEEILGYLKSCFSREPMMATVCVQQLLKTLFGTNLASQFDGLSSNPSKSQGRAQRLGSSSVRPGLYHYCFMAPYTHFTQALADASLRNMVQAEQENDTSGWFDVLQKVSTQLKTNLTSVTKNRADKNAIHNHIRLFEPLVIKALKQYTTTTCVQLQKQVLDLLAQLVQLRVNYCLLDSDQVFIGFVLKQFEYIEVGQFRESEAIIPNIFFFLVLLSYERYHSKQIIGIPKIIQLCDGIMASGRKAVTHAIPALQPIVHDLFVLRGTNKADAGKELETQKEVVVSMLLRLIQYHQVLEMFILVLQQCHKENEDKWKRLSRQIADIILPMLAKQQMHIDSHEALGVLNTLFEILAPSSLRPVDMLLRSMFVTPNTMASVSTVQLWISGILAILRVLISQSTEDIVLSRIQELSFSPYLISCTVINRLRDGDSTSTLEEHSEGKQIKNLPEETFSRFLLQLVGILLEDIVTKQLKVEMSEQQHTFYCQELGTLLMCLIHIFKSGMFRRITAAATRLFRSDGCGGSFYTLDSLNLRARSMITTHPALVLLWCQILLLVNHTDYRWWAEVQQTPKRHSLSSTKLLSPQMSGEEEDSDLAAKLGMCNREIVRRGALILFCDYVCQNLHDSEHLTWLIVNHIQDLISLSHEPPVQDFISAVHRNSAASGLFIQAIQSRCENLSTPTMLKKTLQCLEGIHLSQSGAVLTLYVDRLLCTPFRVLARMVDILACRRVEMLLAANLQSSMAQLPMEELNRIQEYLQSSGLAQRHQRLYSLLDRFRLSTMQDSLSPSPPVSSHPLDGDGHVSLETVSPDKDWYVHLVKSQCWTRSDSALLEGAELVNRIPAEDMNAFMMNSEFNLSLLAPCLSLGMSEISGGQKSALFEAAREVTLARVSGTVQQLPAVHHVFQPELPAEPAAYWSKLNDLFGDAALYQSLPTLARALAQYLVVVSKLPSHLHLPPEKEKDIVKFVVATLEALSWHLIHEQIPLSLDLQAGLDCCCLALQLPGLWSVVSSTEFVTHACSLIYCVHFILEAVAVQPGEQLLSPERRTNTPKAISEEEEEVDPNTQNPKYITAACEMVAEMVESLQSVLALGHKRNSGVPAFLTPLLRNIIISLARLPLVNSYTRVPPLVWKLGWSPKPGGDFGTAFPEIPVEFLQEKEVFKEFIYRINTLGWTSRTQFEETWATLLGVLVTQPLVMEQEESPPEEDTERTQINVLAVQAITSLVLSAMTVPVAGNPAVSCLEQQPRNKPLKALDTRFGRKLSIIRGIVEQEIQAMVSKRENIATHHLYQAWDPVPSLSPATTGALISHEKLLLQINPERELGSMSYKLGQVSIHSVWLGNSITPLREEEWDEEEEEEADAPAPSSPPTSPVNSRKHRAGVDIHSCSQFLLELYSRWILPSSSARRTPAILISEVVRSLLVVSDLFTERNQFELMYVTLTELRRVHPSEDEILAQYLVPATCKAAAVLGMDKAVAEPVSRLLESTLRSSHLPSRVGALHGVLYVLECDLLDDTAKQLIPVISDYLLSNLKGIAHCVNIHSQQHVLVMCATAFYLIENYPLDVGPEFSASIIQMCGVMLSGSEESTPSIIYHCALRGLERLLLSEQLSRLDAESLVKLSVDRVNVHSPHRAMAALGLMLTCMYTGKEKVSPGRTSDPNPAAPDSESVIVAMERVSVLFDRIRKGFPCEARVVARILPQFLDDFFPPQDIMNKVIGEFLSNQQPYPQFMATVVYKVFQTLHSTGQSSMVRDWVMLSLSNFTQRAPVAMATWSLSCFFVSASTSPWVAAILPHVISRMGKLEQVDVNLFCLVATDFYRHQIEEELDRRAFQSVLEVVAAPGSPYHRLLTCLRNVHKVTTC
UniProt Q9H0C8: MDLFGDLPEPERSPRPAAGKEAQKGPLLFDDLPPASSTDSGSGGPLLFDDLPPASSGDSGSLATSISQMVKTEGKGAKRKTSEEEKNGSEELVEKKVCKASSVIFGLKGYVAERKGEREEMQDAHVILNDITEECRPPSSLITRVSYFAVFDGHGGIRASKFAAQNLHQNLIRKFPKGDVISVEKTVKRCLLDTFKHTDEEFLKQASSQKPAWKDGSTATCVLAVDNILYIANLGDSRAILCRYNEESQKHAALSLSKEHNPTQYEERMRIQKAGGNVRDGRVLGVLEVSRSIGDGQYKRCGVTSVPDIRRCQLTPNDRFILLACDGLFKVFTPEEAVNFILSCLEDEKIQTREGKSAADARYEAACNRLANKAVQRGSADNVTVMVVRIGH
UniProt Q9Y4L1: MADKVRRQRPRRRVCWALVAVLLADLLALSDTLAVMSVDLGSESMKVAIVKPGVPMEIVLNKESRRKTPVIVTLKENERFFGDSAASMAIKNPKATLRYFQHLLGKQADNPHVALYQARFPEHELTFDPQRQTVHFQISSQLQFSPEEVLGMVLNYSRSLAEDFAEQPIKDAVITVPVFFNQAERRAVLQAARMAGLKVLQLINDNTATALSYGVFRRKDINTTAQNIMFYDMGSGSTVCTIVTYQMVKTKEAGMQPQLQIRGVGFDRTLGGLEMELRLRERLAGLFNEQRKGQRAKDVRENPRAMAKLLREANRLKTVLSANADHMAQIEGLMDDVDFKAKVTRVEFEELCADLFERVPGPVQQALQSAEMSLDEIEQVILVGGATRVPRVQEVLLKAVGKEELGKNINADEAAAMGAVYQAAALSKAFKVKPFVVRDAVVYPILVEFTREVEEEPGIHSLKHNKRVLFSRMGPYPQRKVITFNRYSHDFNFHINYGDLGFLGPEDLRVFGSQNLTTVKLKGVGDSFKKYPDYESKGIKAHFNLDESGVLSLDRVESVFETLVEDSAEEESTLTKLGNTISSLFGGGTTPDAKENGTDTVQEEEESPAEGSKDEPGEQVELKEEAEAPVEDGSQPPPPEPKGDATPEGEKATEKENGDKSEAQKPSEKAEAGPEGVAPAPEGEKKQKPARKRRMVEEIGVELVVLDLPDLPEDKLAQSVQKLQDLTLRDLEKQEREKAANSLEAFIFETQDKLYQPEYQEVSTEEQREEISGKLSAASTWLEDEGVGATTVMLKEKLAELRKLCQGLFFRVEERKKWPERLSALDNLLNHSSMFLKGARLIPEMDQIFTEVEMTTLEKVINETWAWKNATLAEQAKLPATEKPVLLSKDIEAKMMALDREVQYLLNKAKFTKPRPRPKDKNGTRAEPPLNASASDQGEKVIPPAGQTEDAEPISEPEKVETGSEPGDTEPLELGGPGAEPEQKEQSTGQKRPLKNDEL
UniProt P41252: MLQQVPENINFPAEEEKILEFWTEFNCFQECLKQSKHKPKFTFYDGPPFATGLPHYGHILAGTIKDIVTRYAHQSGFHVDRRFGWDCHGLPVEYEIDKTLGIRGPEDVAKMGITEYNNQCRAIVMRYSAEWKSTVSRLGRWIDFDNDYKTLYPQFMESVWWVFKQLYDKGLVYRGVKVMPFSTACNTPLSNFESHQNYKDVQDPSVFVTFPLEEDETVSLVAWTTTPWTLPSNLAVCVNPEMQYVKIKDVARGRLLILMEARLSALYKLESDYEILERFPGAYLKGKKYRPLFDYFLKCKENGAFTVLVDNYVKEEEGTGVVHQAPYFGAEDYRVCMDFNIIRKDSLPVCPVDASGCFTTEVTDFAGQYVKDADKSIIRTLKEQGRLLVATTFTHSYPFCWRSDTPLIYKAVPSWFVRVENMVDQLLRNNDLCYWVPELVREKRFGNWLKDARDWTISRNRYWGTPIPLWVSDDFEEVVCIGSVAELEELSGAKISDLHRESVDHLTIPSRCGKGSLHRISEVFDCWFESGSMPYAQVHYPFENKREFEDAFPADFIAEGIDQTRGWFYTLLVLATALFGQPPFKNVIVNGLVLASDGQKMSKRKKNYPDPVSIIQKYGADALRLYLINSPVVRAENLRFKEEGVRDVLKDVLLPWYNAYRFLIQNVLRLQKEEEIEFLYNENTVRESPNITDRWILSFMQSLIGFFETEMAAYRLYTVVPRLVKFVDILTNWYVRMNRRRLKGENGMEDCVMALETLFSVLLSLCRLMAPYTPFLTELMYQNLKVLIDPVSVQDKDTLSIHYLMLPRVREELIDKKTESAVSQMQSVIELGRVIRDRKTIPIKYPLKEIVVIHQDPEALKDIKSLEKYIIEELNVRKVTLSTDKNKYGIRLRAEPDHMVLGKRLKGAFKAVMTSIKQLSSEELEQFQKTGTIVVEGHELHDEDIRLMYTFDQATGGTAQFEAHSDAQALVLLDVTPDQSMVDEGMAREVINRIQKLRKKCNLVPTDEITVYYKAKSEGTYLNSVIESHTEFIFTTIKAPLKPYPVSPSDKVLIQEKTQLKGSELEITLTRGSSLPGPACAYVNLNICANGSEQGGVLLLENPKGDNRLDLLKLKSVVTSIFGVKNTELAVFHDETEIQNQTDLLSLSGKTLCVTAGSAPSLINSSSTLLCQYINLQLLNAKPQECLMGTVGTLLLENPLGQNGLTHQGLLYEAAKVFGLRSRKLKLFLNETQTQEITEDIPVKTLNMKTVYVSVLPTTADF

Compound: CC1Cc2ccccc2N1C(=O)C1CCCN(C1)C(=O)CCl (mixture of isomers) [TRIM25 ligand 11 (diastereomer mixture)]
Assay: probe-labelled cysteine peptide fold change vs DMSO (competition) (log2 fold change); higher = less target engagement (more negative = stronger competition)
Settings: THP-1, incubation time: 4 h
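Further: competitive chemoproteomic profiling in live THP-1 cells with an iodoacetamide desthiobiotin (IA-DTB) probe, comparing probe-labelled peptide intensities in compound-treated cells against DMSO-treated controls.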

Target	probe-labelled cysteine peptide fold change (10 µM)	probe-labelled cysteine peptide fold change (50 µM)
IFT81_Q8WYA0_569_YHYTNCMIK (UniProt Q8WYA0)	0.00945	0.241
IGF2R_P11717_823_YYINVCRPLNPVPGCNR (UniProt P11717)	-0.0696	-0.0213
HTT_P42858_664_FVLRDEATEPGDQENKPCR (UniProt P42858)	0.0115	-0.0955
HUS1_O60921_253_ALCNIVNNK (UniProt O60921)	-0.137	0.058
IARS2_Q9NSE4_1005_CAEVVSGK (UniProt Q9NSE4)	-0.0191	0.042
IGF2R_P11717_2113_RFDIDSCTYYFSWDSR (UniProt P11717)	0.0991	0.0766
ILKAP_Q9H0C8_135_EEMQDAHVILNDITEECRPPSSLITR (UniProt Q9H0C8)	0.0678	-0.0787
HUWE1_Q7Z6Z7_183_ENGFGLAECCR (UniProt Q7Z6Z7)	-0.0934	-0.00261
IGF2R_P11717_475_EKEDLLCGATDGK (UniProt P11717)	-0.063	-0.166
INO80_Q9ULG1_1001+1011_CLLTELPSFLCVASPR (UniProt Q9ULG1)	-0.0961	-0.462
IFT80_Q9P2H3_210_VDWNSVNDLILSAGEDCK (UniProt Q9P2H3)	0.181	0.161
IGF2R_P11717_1957_CDEDEDIGRPQVFSEVR (UniProt P11717)	0.0901	0.193
IMPDH1_P20839_215_LPIVNDCDELVAIIAR (UniProt P20839)	-0.0181	0.0351
IGF2R_P11717_2096_TASSVIELTCTK (UniProt P11717)	-0.0988	0.0405
IMPA2_O14732_90_CVLTHSPTWIIDPIDGTCNFVHR (UniProt O14732)	0.168	0.0794
IL17RA_Q96F46_185_NFLVPDCEHAR (UniProt Q96F46)	-0.00623	0.181
HTT_P42858_636_NMSHCR (UniProt P42858)	-0.11	-0.24
IFIH1_Q9BYX4_17_YLISCFR (UniProt Q9BYX4)	0.00934	0.2
IGF2R_P11717_731_ATLITFLCDR (UniProt P11717)	0.165	0.416
ICAM3_P32942_190_DDHGAPFSCR (UniProt P32942)	-0.00802	0.0203

Target	probe-labelled cysteine peptide fold change (10 µM)	probe-labelled cysteine peptide fold change (50 µM)
IDH3A_P50213_359_CSDFTEEICR (UniProt P50213)	-0.0208	0.0507
IGF2R_P11717_1783_TSECDFVFEWETPVVCPDEVR (UniProt P11717)	-0.144	-0.672
IMPDH2_P12268_140_HGFCGIPITDTGR (UniProt P12268)	0.0941	0.0676
HUWE1_Q7Z6Z7_2106_EDCSVLAFVLDHLLPHTQNAEDKDTPALAR (UniProt Q7Z6Z7)	0.0682	0.151
IFI16_Q16666_737_LTCFELAPK (UniProt Q16666)	-0.072	-0.0658
INF2_Q27J81_898_ELADYLCEDAQQLSLEDTFSTMK (UniProt Q27J81)	0.0336	-0.231
ILVBL_A1L0T0_354_ADVIVLAGTVCDFR (UniProt A1L0T0)	0.187	0.139
IFI16_Q16666_351+356_MDVVGTGQCHNIPCEEGDK (UniProt Q16666)	0.083	-0.317
IFT81_Q8WYA0_557_LREECLQEESR (UniProt Q8WYA0)	-0.0228	0.0267
IMPDH2_P12268_246_QLLCGAAIGTHEDDKYR (UniProt P12268)	-0.552	-0.216
HYOU1_Q9Y4L1_352_VEFEELCADLFER (UniProt Q9Y4L1)	0.118	-0.106
IBTK_Q9P2D0_615_DEDSAGCHLFVVEK (UniProt Q9P2D0)	0.218	0.148
IARS_P41252_400_LLVATTFTHSYPFCWR (UniProt P41252)	-0.0304	0.234
ILKAP_Q9H0C8_221_DGSTATCVLAVDNILYIANLGDSR (UniProt Q9H0C8)	-0.166	0.0411
HYOU1_Q9Y4L1_352_VTRVEFEELCADLFER (UniProt Q9Y4L1)	0.0103	0.0224
HUWE1_Q7Z6Z7_3333_HASGGSTVHIHPQAAPVVCR (UniProt Q7Z6Z7)	0.433	0.158
IGF2R_P11717_830_YASACQMK (UniProt P11717)	-0.0974	-0.00457
IDH2_P48735_113_CATITPDEARVEEFK (UniProt P48735)	-0.248	-0.0456
ILF3_Q12906_295_VLECLASGIVMPDGSGIYDPCEK (UniProt Q12906)	0.237	-0.0431

An excerpt of these results, with bars between the fields:
Target | probe-labelled cysteine peptide fold change (10 µM) | probe-labelled cysteine peptide fold change (50 µM)
IMPDH2_P12268_246_QLLCGAAIGTHEDDKYR (UniProt P12268) | -0.552 | -0.216
IARS_P41252_400_LLVATTFTHSYPFCWR (UniProt P41252) | -0.0304 | 0.234
HUWE1_Q7Z6Z7_3333_HASGGSTVHIHPQAAPVVCR (UniProt Q7Z6Z7) | 0.433 | 0.158
